Data as given in the supplement of paper PMC10849652.
Some of the results follow.

The chains behind the UniProt entries cited, without tags or fusion partners. Where a name states a change or a piece, a line headed by the entry shows the natural chain unless it says otherwise.
UniProt Q86W74: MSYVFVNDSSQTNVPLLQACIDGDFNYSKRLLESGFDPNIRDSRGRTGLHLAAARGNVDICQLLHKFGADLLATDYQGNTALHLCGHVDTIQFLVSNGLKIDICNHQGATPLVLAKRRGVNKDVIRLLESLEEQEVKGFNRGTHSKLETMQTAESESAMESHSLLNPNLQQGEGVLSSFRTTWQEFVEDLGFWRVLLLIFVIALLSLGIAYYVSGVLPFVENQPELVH
UniProt P54886: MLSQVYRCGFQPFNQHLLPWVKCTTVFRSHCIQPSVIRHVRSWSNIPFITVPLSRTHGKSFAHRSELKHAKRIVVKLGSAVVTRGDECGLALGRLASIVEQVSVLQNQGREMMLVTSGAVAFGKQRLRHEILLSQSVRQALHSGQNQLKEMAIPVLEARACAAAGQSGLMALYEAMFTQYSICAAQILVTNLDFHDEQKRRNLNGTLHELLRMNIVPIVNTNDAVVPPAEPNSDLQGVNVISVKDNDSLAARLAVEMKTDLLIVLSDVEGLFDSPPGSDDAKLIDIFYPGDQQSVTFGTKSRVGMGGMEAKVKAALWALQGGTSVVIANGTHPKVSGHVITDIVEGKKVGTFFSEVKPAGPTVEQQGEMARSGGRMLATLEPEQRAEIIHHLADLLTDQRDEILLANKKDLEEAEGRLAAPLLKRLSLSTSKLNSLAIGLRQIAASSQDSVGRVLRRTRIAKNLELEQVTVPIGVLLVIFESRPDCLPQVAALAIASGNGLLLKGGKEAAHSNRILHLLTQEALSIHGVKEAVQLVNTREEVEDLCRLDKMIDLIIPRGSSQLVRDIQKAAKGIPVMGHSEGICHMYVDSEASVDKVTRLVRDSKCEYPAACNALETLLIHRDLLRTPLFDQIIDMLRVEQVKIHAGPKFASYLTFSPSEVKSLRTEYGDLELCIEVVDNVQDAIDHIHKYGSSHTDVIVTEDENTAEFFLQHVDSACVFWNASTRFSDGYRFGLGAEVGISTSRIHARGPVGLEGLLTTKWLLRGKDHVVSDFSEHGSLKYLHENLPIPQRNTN
UniProt Q9P2G1: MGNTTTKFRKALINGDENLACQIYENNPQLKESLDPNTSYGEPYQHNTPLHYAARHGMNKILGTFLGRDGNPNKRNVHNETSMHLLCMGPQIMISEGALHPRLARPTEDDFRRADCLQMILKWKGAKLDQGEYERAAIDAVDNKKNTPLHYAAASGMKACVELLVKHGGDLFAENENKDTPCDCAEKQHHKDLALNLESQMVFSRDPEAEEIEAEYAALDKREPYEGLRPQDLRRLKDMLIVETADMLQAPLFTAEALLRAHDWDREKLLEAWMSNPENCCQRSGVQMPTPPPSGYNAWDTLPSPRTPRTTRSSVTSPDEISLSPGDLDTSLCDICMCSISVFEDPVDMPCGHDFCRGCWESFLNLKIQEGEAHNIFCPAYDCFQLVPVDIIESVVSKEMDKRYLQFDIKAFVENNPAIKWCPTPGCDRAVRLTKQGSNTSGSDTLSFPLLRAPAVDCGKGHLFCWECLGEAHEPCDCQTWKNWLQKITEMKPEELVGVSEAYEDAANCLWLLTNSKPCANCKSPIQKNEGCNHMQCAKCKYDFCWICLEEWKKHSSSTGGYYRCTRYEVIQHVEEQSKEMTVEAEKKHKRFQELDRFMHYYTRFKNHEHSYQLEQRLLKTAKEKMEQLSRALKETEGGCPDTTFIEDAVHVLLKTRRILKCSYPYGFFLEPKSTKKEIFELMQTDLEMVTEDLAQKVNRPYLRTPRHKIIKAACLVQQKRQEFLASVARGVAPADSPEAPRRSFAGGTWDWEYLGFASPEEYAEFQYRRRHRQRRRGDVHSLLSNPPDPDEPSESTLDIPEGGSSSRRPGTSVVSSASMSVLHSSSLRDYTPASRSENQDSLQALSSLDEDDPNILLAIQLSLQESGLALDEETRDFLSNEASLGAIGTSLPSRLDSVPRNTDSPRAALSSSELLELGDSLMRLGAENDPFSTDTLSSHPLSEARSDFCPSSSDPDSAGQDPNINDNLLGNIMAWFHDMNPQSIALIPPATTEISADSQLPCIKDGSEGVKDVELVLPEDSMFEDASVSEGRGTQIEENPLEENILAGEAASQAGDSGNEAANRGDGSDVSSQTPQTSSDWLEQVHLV
UniProt P22557: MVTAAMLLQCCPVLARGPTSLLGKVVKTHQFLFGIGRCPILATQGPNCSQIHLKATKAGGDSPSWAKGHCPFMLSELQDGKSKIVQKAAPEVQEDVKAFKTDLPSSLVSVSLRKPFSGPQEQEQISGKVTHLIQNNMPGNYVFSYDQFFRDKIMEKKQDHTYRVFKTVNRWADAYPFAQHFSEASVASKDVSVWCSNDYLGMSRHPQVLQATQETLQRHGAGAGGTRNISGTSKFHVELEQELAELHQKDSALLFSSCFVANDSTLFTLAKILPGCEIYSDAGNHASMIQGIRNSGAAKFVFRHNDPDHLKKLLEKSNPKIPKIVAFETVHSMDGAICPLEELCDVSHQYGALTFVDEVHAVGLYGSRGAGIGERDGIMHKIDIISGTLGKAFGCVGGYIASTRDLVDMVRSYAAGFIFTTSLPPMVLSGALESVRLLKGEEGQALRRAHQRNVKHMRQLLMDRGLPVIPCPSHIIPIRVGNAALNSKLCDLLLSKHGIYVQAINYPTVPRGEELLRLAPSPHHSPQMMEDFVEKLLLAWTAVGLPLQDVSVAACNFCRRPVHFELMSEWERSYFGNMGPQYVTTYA
UniProt Q10567: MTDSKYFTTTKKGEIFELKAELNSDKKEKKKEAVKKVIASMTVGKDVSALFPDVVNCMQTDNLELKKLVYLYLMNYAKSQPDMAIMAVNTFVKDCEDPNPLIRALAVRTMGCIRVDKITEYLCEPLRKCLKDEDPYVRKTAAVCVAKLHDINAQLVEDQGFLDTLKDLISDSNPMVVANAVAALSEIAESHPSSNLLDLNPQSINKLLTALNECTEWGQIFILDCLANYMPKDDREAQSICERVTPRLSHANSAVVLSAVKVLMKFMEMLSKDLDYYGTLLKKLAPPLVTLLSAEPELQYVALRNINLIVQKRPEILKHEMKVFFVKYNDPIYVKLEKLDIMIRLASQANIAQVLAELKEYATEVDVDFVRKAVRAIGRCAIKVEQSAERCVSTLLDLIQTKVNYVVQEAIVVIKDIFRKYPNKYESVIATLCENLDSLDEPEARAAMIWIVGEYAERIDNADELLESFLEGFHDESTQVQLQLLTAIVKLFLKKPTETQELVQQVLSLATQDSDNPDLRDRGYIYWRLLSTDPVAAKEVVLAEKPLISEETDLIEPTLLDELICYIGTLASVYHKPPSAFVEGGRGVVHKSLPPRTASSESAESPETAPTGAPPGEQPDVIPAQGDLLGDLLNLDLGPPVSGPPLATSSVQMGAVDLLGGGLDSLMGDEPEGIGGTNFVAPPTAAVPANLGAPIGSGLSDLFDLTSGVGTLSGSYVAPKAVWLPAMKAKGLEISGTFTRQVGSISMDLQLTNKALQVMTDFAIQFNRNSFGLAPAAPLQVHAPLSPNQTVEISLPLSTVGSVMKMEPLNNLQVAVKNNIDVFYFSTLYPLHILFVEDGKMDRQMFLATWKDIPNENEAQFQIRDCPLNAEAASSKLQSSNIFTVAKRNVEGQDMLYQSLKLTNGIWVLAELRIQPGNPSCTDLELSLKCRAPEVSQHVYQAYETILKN
UniProt Q7Z6G8: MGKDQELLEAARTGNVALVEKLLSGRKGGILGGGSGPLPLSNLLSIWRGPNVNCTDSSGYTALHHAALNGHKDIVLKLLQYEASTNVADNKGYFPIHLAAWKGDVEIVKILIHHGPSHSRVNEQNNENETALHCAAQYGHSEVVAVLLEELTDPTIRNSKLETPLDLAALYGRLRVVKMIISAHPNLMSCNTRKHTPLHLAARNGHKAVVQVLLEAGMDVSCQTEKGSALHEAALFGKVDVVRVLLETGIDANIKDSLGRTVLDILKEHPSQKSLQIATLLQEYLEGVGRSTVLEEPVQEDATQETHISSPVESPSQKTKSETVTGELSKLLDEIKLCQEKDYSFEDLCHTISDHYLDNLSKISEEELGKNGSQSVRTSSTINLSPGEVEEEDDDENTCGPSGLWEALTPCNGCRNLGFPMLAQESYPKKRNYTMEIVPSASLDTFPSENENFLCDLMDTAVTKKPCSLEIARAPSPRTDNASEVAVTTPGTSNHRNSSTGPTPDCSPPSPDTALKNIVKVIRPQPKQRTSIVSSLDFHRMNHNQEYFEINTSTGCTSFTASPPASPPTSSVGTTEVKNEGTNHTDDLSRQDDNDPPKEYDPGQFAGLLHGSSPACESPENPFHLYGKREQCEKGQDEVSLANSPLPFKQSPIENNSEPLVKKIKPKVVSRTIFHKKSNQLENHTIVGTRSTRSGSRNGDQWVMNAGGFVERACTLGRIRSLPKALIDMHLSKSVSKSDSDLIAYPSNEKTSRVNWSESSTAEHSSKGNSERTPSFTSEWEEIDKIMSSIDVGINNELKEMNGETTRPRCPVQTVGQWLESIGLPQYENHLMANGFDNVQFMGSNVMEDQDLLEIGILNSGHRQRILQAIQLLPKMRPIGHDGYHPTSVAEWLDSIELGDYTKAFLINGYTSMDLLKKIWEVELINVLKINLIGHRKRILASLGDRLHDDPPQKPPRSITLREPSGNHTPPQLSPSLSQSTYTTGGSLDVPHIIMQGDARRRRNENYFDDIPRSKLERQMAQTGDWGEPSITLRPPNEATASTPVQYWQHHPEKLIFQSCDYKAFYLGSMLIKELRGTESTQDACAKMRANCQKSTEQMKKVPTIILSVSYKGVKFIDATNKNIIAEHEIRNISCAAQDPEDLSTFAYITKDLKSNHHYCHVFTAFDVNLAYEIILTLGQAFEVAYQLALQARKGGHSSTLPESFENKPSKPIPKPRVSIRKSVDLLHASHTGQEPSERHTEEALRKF
UniProt A1A5B4: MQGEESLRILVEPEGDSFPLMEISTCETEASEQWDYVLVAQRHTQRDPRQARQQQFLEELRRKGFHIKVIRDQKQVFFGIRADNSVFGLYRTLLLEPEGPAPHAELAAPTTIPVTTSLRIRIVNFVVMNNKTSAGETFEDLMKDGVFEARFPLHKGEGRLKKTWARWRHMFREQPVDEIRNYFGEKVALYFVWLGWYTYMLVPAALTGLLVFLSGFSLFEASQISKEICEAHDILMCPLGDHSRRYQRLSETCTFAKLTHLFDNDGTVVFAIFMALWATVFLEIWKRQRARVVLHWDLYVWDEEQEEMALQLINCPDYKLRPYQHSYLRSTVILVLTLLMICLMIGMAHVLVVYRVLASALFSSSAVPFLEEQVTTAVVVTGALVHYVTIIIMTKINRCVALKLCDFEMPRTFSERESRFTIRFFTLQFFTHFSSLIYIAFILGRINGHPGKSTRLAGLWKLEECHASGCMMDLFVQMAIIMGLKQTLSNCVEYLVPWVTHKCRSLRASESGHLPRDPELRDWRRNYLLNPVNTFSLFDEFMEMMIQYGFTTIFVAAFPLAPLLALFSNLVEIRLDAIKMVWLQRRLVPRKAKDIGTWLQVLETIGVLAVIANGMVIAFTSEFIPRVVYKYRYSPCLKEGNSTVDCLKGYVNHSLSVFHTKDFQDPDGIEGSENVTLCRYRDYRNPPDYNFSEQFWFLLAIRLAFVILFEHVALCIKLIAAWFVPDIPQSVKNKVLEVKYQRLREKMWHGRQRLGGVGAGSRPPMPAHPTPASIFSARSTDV
UniProt Q8N6S4: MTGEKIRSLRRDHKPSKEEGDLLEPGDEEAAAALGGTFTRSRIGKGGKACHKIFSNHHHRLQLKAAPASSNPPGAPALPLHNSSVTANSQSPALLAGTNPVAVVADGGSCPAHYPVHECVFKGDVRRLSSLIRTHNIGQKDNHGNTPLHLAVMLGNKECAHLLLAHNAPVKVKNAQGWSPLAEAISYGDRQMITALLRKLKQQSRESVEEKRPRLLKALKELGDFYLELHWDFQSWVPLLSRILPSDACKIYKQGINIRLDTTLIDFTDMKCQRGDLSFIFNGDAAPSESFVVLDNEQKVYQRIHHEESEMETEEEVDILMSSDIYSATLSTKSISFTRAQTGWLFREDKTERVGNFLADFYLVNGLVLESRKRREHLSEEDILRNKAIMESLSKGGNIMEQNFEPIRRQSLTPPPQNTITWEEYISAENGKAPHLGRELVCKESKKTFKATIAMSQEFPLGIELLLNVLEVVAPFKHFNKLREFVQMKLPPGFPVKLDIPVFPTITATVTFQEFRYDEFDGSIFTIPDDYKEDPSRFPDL
UniProt Q86W34: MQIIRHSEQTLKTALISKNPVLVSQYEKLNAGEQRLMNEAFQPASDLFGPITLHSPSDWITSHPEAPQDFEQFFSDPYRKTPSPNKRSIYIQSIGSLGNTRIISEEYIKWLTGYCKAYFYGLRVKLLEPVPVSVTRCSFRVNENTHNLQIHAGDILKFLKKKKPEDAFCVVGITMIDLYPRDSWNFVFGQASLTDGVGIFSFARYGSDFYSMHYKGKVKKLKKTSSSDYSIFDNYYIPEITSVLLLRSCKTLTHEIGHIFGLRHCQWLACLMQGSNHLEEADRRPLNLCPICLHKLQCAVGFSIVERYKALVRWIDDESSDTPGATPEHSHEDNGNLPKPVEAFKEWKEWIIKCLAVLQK

Experiments:
Test in all cases: log2 fold change, soluble protein after heating vs DMSO (PISA); higher = thermal stabilisation; K562 lysate, 10 uM; active = over 0.2 and 3.5 SD of the protein, either way, in both replicates (recomputed)
alvocidib = compound: CN1CC[C@H](c2c(O)cc(O)c3c(=O)cc(-c4ccccc4Cl)oc23)[C@H](O)C1 [alvocidib]
Summary of the method: (§1)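 Following dounce homogenisation of K562 pellets in PBS pH 7.4 with 1 mM MgCl2, crude extract at 1 mg/mL protein was incubated for 30 min with 10 μM compound. Aliquots were then heated for 3 min over 48°C-58°C and pooled, NP-40 was added to 0.5% at 4°C, and soluble protein was recovered as the supernatant at 21,000xg for 90 min. Channel-sum-equalised TMTpro 16plex LC-MS/MS quantified this protein. Each value, from duplicates, is a log-two fold change in thermal stability relative to solvent controls.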

Tubastatin A = compound: CN1CCc2c(c3ccccc3n2Cc2ccc(C(=O)NO)cc2)C1 [Tubastatin A]
Summary of the method: as §1

[1] = compound: CNC(=O)C1=CC=CC=C1NC2=NC(=NC=C2Cl)NC3=C(C=C(C=C3)N4CCOCC4)OC
Summary of the method: as §1

defactinib = compound: CNC(=O)c1ccc(Nc2ncc(C(F)(F)F)c(NCc3nccnc3N(C)S(C)(=O)=O)n2)cc1 [defactinib]
Summary of the method: as §1

[2] = compound: CNc1nc(-c2ccc3c(N)n[nH]c3c2)cc(N2C[C@@H](C(=O)NC3CCCCC3)CC[C@H]2C)n1
Summary of the method: as §1

crizotinib = compound: C[C@@H](Oc1cc(-c2cnn(C3CCNCC3)c2)cnc1N)c1c(Cl)ccc(F)c1Cl [crizotinib]
Summary of the method: as §1

[3] = compound: C[C@H](C1=CC=C(C=C1)C(=O)NC2=C3C=CNC3=NC=C2)N
Summary of the method: as §1

duvelisib = compound: C[C@H](Nc1ncnc2nc[nH]c12)c1cc2cccc(Cl)c2c(=O)n1-c1ccccc1 [duvelisib]
Summary of the method: as §1

gandotinib = compound: Cc1cc(Nc2cc(CN3CCOCC3)c3nc(C)c(Cc4ccc(Cl)cc4F)n3n2)n[nH]1 [gandotinib]
Summary of the method: as §1

doramapimod = compound: Cc1ccc(-n2nc(C(C)(C)C)cc2NC(=O)Nc2ccc(OCCN3CCOCC3)c3ccccc23)cc1 [doramapimod]
Summary of the method: as §1

[4] = compound: Cc1cccc(CC(=O)N2CCc3c2ccc(-c2cn(C)c4ncnc(N)c24)c3F)n1
Summary of the method: as §1

encorafenib = compound: COC(=O)N[C@@H](C)CNc1nccc(-c2cn(C(C)C)nc2-c2cc(Cl)cc(NS(C)(=O)=O)c2F)n1 [encorafenib]
Summary of the method: as §1

[5] = compound: COC(=O)[C@H](CCSC)NC(=O)C1=C(C=C(C=C1)NC[C@H](CS)N)C2=CC=CC=C2
Summary of the method: as §1

alisertib = compound: COc1cc(Nc2ncc3c(n2)-c2ccc(Cl)cc2C(c2c(F)cccc2OC)=NC3)ccc1C(=O)O [alisertib]
Summary of the method: as §1

[6] = compound: COc1cc2nc(-c3cc(F)ccc3O)nc(N[C@@H]3CNC[C@H]3C(C)(C)O)c2cc1OC
Summary of the method: as §1

gefitinib = compound: COc1cc2ncnc(Nc3ccc(F)c(Cl)c3)c2cc1OCCCN1CCOCC1 [gefitinib]
Summary of the method: as §1

lapatinib = compound: CS(=O)(=O)CCNCc1ccc(-c2ccc3ncnc(Nc4ccc(OCc5cccc(F)c5)c(Cl)c4)c3c2)o1 [lapatinib]
Summary of the method: as §1

pictilisib = compound: CS(=O)(=O)N1CCN(Cc2cc3nc(-c4cccc5[nH]ncc45)nc(N4CCOCC4)c3s2)CC1 [pictilisib]
Summary of the method: as §1

tozasertib = compound: Cc1cc(Nc2cc(N3CCN(C)CC3)nc(Sc3ccc(NC(=O)C4CC4)cc3)n2)n[nH]1 [tozasertib]
Summary of the method: as §1

bafetinib = compound: Cc1ccc(NC(=O)c2ccc(CN3CC[C@H](N(C)C)C3)c(C(F)(F)F)c2)cc1Nc1nccc(-c2cncnc2)n1 [bafetinib]
Summary of the method: as §1

Measured: log2 fold change

ANKRD46 (UniProt Q86W74)
inactive: alvocidib 0.094 | Tubastatin A 0.04 | [1] 0.013 | defactinib 0.091 | [2] -0.032 | crizotinib -0.135 | [3] -0.096 | duvelisib 0.04 | gandotinib 0.011 | doramapimod 0.175 | [4] 0.055

ALDOA (UniProt H3BPS8)
inactive: alvocidib 0.091 | [1] -0.206 | defactinib 0.046 | encorafenib -0.104 | [5] 0.186 | alisertib -0.13 | [6] -0.014 | gefitinib -0.254 | lapatinib -0.132 | pictilisib -0.221 | [3] -0.082 | gandotinib 0.074 | tozasertib -0.1 | bafetinib -0.344 | [4] -0.054

ALG14 (UniProt Q96F25)
inactive: [6] -0.062 | lapatinib -0.084

ALDH18A1 isoform 2 (UniProt P54886)
inactive: Tubastatin A -0.06 | defactinib 0.016 | [2] -0.139 | crizotinib 0.127 | duvelisib 0.088 | doramapimod -0.134

ANKRD12 (UniProt Q6UB98)
inactive: Tubastatin A -0.087 | encorafenib -0.049 | [5] -0.157 | tozasertib 0.052

ANKIB1 (UniProt Q9P2G1)
inactive: Tubastatin A -0.205

AP1S2 (UniProt H7BZG6)
inactive: [1] -0.011

ANKHD1 (UniProt D6RHC4)
inactive: Tubastatin A 0.197 | [1] -0.066 | [2] 0.021 | [6] 0.085 | lapatinib 0.03 | duvelisib 0.153

ALAS2 (UniProt P22557)
inactive: crizotinib -0.025 | doramapimod -0.038

AMOT (UniProt Q4VCS5)
inactive: Tubastatin A -0.023 | [2] 0.003 | encorafenib 0.043 | [5] -0.027 | alisertib 0.15 | gefitinib -0.116 | crizotinib -0.025 | duvelisib -0.047 | tozasertib -0.029 | doramapimod 0.022

AP3S2 (UniProt P59780)
inactive: [1] 0.091 | alisertib 0.104 | [6] -0.092 | gefitinib -0.089 | lapatinib -0.201

ANKRD26 (UniProt Q9UPS8)
inactive: Tubastatin A -0.024 | [1] 0.503 | defactinib -0.14 | encorafenib -0.017 | [5] 0.147 | alisertib 0.233 | [6] 0.118 | gefitinib -0.06 | lapatinib -0.212 | pictilisib -0.284 | crizotinib 0.44 | tozasertib 0.09 | doramapimod 0.014 | bafetinib -0.065

ALDH1A3 (UniProt P47895)
inactive: encorafenib -0.596 | [5] 0.44 | tozasertib 0.447

AP1B1 isoform 3 (UniProt Q10567)
inactive: Tubastatin A -0.079 | pictilisib -0.203 | crizotinib -0.09 | doramapimod 0.409 | bafetinib 0.279

AP2M1 (UniProt C9JTK4)
inactive: Tubastatin A 0.161

ALOX5 (UniProt P09917)
inactive: alvocidib -0.185 | [3] -0.136 | gandotinib 0.1 | [4] 0.246

ALDH9A1 (UniProt P49189)
inactive: Tubastatin A 0.024 | defactinib -0.279 | [2] -0.061 | pictilisib 0.013 | crizotinib 0.105 | duvelisib 0.023 | doramapimod 0.01 | bafetinib -0.081

AP1G1 (UniProt H3BV30)
inactive: [6] 0.009 | lapatinib 0.173

ANKRD39 (UniProt Q53RE8)
inactive: alvocidib -0.032 | [2] 0.061 | alisertib -0.051 | gefitinib -0.025 | crizotinib -0.091 | [3] 0.131 | duvelisib -0.123 | gandotinib -0.085 | doramapimod 0.333 | [4] 0.027

ALG13 isoform 2 (UniProt Q9NP73)
inactive: alvocidib 0.003 | alisertib -0.281 | gefitinib -0.095 | [3] 0.054 | gandotinib -0.088 | [4] 0.106

ANAPC13 (UniProt Q9BS18)
inactive: defactinib -0.02 | encorafenib 0.052 | [5] 0.001 | tozasertib -0.005

AP2S1 (UniProt M0QZ21)
inactive: alvocidib 0.032 | [6] -0.016 | lapatinib 0.024 | pictilisib 0.054 | [3] -0.053 | gandotinib 0.204 | bafetinib -0.055 | [4] 0.109

Taken from the results shown (2 entries):
AP1G1 (UniProt H3BV30)
inactive: [6] 0.009 | lapatinib 0.173

ANKRD39 (UniProt Q53RE8)
inactive: alvocidib -0.032 | [2] 0.061 | alisertib -0.051 | gefitinib -0.025 | crizotinib -0.091 | [3] 0.131 | duvelisib -0.123 | gandotinib -0.085 | doramapimod 0.333 | [4] 0.027

Additional records follow.

ANKS1B (UniProt Q7Z6G8)
inactive: [6] -0.011 | lapatinib 0.048

ANO9 (UniProt A1A5B4)
inactive: Tubastatin A 0.058 | [2] 0.202 | duvelisib -0.001

ANXA6 (UniProt E5RK69)
inactive: [1] -0.051 | [2] 0.023 | encorafenib -0.052 | [5] -0.06 | alisertib 0.024 | [6] 0.069 | gefitinib 0.058 | lapatinib 0.019 | crizotinib -0.064 | duvelisib 0.031 | tozasertib -0.266 | doramapimod -0.059

ANKRD16 (UniProt Q6P6B7)
inactive: alvocidib -0.118 | [2] 0.023 | encorafenib -0.111 | [5] 0.186 | alisertib -0.207 | [6] 0.079 | gefitinib 0.025 | lapatinib -0.084 | pictilisib 0.147 | crizotinib -0.046 | [3] -0.165 | duvelisib 0.048 | gandotinib -0.084 | tozasertib -0.094 | doramapimod 0.006 | bafetinib -0.055 | [4] 0.133

ANKRD13C (UniProt Q8N6S4)
inactive: Tubastatin A 0.041 | pictilisib -0.137 | bafetinib -0.031

AP2M1 (UniProt C9JPV8)
inactive: [6] -0.243 | lapatinib 0.03

ANKS6 isoform 4 (UniProt Q68DC2)
inactive: Tubastatin A -0.115 | [1] 0.052 | [2] 0.076 | encorafenib 0.12 | [5] 0.096 | alisertib -0.024 | gefitinib 0.193 | crizotinib 0.055 | duvelisib 0.065 | tozasertib 0.016 | doramapimod 0.002

AMZ2 (UniProt Q86W34)
inactive: Tubastatin A 0.001 | [1] -0.034 | defactinib 0.004 | [2] 0.071 | encorafenib 0.117 | [5] -0.024 | alisertib -0.007 | [6] 0.016 | gefitinib -0.003 | lapatinib -0.002 | pictilisib -0.09 | crizotinib 0.018 | duvelisib 0.106 | tozasertib -0.04 | doramapimod 0 | bafetinib -0.071

AMN1 (UniProt Q8IY45)
inactive: alvocidib 0.134 | [6] -0.12 | lapatinib 0.331 | [3] -0.059 | gandotinib 0.31 | [4] -0.1

AKTIP isoform 2 (UniProt Q9H8T0)
inactive: Tubastatin A -0.02 | [1] -0.114 | [2] -0.03 | encorafenib -0.034 | [5] 0.058 | [6] 0.132 | lapatinib -0.105 | duvelisib -0.148 | tozasertib 0.118

AKT1S1 (UniProt M0R2V8)
inactive: alisertib -0.13 | [6] 0.141 | gefitinib -0.177 | lapatinib -0.142

ANKH (UniProt Q9HCJ1)
inactive: Tubastatin A 0.321 | [1] -0.015 | defactinib -0.116 | encorafenib -0.034 | [5] -0.088 | alisertib -0.198 | [6] -0.034 | gefitinib 0.34 | lapatinib 0.014 | crizotinib -0.007 | tozasertib -0.067 | doramapimod 0.028

ANKRD31 (UniProt Q8N7Z5)
inactive: [2] 0.304 | encorafenib 0.098 | [5] 0.027 | [6] -0.19 | lapatinib 0.106 | pictilisib 0.077 | crizotinib 0.053 | duvelisib 0.008 | tozasertib -0.12 | doramapimod 0.018 | bafetinib -0.145

ALPK1 (UniProt Q96QP1)
inactive: [1] -0.114

ANKRD13B (UniProt Q86YJ7)
inactive: [2] 0.268 | encorafenib -0.005 | [5] 0.187 | [6] 0.274 | lapatinib 0.085 | duvelisib 0.06 | tozasertib 0.143
